Here are results for one molecule from PMC2323286.

No constants are given. Whether binding was seen depends on the method and setting. Tags and fused reporters may be left off the sequences shown.

For this assay, the target named is NSs of Germiston virus fused to the Gal4 DNA-binding domain (pGBKT7-NSsGER) (Germiston virus). As to the kind of experiment: two-hybrid.

B1: SAP30 amino acids 1-152 fused to the Gal4 transactivating domain (pACT2-SAP30_(1–152)) (domain or fragment, UniProt O88574 1-152)
chain: MNGFTPEEMSRGGDAAAAVAAVVAAAAAAASAGNGNAAGGGAEVPGAGAVSASGPPGAAGPGPGQLCCLREDGERCGRAAGNASFSKRIQKSISQKKVKIELDKSARHLYICDYHKNLIQSVRNRRKRKGSDDDGGDSPVQDIDTPEVDLYQ
In the case of B1, the binding result is reported as “no binding”.
